# Data as given in PubChem BioAssay AID720607 (Broad Institute, 2013).
# The other results are listed elsewhere or left out. These are further read-outs of the screen, such as a control signal, another cell line or another target. No call is given for them. The list favours compounds with an active or inconclusive main result.
# Assay: CCRF-CEM leukemia cell viability loss, dose response, HRAS target identification, CellTiter-Glo ATP luminescence, 8/24/48 h, dry powder (AID 720607)
# Settings: 8-48 h, top conc, at 35 µM, stronger effect = lower value
smiles,measurement,setting,value
CCC(=O)N(c1ccc(OC)c(Cl)c1)C(C(=O)NCCc1ccccc1)c1cccs1 (configuration not stated),activity change,8 h series,-5.22%
same,activity change,24 h series,-35.2%
